Measurements reported in PMC3975400.
These are yes or no findings as the source states them, for the method shown. In cells and extracts the contact can be indirect. Some results given as binding are weak or reduced against the parent protein; the word gives no strength. Tags and fused reporters may be left off the sequences shown.

By UniProt entry, the sequences of proteins in these tests, tags left out. Where a name states a change or a piece, a line headed by the entry shows the natural chain unless it says otherwise. Chains listed by the source or under a name are the forms on record and can include a tag or linker.
HA tagged PKM1 (P14618-2, form named): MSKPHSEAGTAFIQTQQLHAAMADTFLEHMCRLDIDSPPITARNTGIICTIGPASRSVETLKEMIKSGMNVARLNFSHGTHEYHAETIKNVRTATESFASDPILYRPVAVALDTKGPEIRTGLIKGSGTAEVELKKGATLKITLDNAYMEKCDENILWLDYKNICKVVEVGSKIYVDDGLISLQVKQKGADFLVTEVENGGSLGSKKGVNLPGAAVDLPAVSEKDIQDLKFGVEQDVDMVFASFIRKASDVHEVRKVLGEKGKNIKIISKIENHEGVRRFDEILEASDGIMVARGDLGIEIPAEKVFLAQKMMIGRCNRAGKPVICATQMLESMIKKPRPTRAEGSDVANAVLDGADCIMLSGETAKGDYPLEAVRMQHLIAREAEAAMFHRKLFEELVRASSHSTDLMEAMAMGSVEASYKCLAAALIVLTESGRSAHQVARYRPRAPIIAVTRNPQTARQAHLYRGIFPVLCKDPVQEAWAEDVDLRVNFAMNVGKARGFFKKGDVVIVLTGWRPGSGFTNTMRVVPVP

Molecular target: T1, Flag-tagged HNF4α (UniProt P41235)
T1 sequence: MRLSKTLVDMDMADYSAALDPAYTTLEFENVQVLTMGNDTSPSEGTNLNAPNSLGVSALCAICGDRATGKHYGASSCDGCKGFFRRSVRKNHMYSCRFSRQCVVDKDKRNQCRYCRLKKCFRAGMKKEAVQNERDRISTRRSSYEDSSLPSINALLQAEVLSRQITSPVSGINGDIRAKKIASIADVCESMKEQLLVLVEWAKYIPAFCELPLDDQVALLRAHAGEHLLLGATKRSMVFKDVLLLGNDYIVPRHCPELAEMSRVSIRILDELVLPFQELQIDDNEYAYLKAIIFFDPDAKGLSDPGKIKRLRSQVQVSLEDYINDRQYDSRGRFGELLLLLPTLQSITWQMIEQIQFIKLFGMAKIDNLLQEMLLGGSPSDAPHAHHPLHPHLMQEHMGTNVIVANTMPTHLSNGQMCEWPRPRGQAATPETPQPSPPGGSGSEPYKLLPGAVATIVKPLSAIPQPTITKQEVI
Experiment: co-IP; 200 μg lysate of co-transfected HCT116 cells; precleared with agarose A and G; IgG or Flag antibody for immunoprecipitation, 3 h at 4 °C; Western blot with anti-HA antibody

Substance	binding
HA tagged PKM1 (from UniProt P14618-2 1-531) (enzyme)	binds
HA tagged PKM2 (from UniProt P14618-1 1-531) (enzyme)	no binding
